Reference: PubChem BioAssay AID504444 (National Center for Advancing Translational Sciences (NCATS), 2011)
Hit rate of the full screen: of about 360,000 compounds, about 7,500 (2.1%) were called active. The inconclusive results got no clear call from the source; some entries with a clear call stand among them for comparison. The call rests on the fitted dose curve; in most records, active means well fitted inhibition curve with a large enough effect; inconclusive means small, poorly fitted or top-dose-only effect, or effect the other way; inactive means flat fitted curve, though single readings scatter. Potencies of inconclusive entries are doubtful fits and often do not repeat.

experiment: Nrf2 qHTS screen for inhibitors; details: A549 ARE-Fluc reporter, luciferase luminescence, 18-24 h; series mostly up to 46 µM; further: nearly all actives have a fitted effect of over 60% in size
How it was run: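 Nrf2 function is reported as luminescence of an ARE-controlled luciferase in A549 cells. Compounds were tested at several concentrations, and a CellTiter-Fluor read on the same wells flagged cytotoxicity.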
Potency means the concentration at half of the fitted maximal effect.

| Compound | Potency |
| --- | --- |
| COc1ccc(N2CS(=O)(=O)/C(=C/N(C)C)C2=O)cc1 | inconclusive: 4.11 µM [activator, full curve] |
| CCCn1c(=O)c2c(C(F)(F)F)cc(-c3ccco3)nc2n(CCC)c1=O | inactive |
| Cc1cccc(C(=O)Nc2nnc(S(=O)(=O)N3CCOCC3)s2)c1 | inconclusive: 11.6 µM [activator, partial curve] |
| Cn1c(=O)c2c(SCC(=O)Nc3ccccc3F)nc(-c3ccccc3F)nc2n(C)c1=O | inconclusive: 29.1 µM [falling, single point] |
| COc1ccc(-n2c(Cc3ccccc3)nnc2SCC(=O)N2CCCc3ccccc32)cc1 | inactive |
| O=C(Nc1ccccc1)c1cc2c(-c3ccccc3)nn(-c3ccccc3)c2s1 | inconclusive: 11.6 µM [falling, partial curve] |
| O=C(NC1CCCCC1)C(c1ccc(F)cc1)N(Cc1ccccc1)C(=O)CN1C(=O)c2ccccc2S1(=O)=O (stereo unspecified) | inconclusive: 23.1 µM [falling, single point] |
| O=C(CSc1c2c(nc3ccc(Cl)cc13)CCCC2)N1CCN(c2ccc(Cl)cc2)CC1 | active: 2.91 µM |
| CC1(C(=O)OCc2cc(=O)n3cc(Br)ccc3n2)CC1(Cl)Cl (stereo unspecified) | inconclusive: 2.59 µM [activator, full curve] |
| O=C1CCC2S/C(=C/Nc3ccc(C(F)(F)F)cc3)C(=O)N12 (stereo unspecified) | active: 1.03 µM |
| CSc1ccc(CCNS(=O)(=O)c2cc(-c3cc(C)no3)ccc2C)cc1 | inconclusive: 20.6 µM [falling, single point] |
| C=CCN1c2ccccc2[C@]23C[C@@H](C(=O)OC)N(C(=O)c4cccs4)C2=NC(C(=O)OC)=C(C(=O)OC)[C@H]13 | inconclusive: 29.1 µM [falling, single point] |
| Cc1cc(C)c2nc(C(F)(F)F)nc(NCCCN3CCCC3=O)c2c1 | inconclusive: 25.9 µM [falling, single point] |
| COc1ccc(Nc2nc(C)c3ccccc3n2)cc1 | inconclusive: 11.6 µM [activator, partial curve, poor fit] |
| C#CCOc1c(Br)cc(C2C(C(=O)OC)=C(C)NC3=C2C(=O)c2ccccc23)cc1OCC (stereo unspecified) | inconclusive: 23.1 µM [falling, single point] |
| CC(C)(C)C(=O)OCc1cn(-c2ccc(Cl)cc2)nn1 | inconclusive: 8.2 µM [activator, partial curve] |
| Cc1ccc(C)c(N(CC(=O)NC2CCCC2)C(=O)c2oc(C(C)(C)C)cc2C)c1 | inconclusive: 18.4 µM [falling, single point] |
| COc1ccccc1NS(=O)(=O)c1cc(NC(=O)CNC(=O)c2ccccc2)ccc1C | inconclusive: 29.1 µM [falling, single point] |
| O=C(CCCOc1ccccc1)N1CCN(c2ccccn2)CC1 | inconclusive: 0.259 µM [activator, full curve, poor fit] |
| COc1ccccc1C(=O)NC1(C(F)(F)F)C(=O)NC(C)=C1C#N (stereo unspecified) | inactive |
| COc1cc(C(C#N)N2N=C(c3ccccc3)CC2c2ccccc2)ccc1O (stereo unspecified) | inconclusive: 16.4 µM [activator, single point] |

Part of the list above in order of heavy-atom count, largest number first.

| Compound | Potency |
| --- | --- |
| Cc1ccc(C)c(N(CC(=O)NC2CCCC2)C(=O)c2oc(C(C)(C)C)cc2C)c1 | inconclusive: 18.4 µM [falling, single point] |
| Cc1cc(C)c2nc(C(F)(F)F)nc(NCCCN3CCCC3=O)c2c1 | inconclusive: 25.9 µM [falling, single point] |
| COc1ccc(N2CS(=O)(=O)/C(=C/N(C)C)C2=O)cc1 | inconclusive: 4.11 µM [activator, full curve] |

The results go on:

| Compound | Potency |
| --- | --- |
| N/C(=N\OC(=O)c1ccc2c(c1)OCO2)c1ccncc1 | inconclusive: 5.8 µM [activator, partial curve] |
| CCOC(=O)c1ccccc1NC(=O)c1cn(-c2ccc(OC)cc2)c(=O)c2ccccc12 | inconclusive: 20.6 µM [falling, single point] |
| Cc1[nH]n(-c2ccccc2)c(=O)c1C=Nc1cccc(F)c1 | inactive |
| COc1cc(OC)c(NC(=O)c2nn(C)c3c2COc2ccccc2-3)cc1Cl | inconclusive: 29.1 µM [activator, single point] |
| CCS(=O)(=O)N1CCN(c2ccc(C(=O)NC3C4CC5CC(C4)CC3C5)cc2[N+](=O)[O-])CC1 (stereo unspecified) | inconclusive: 18.4 µM [falling, single point] |
| Cc1ccccc1NC(=O)Cn1nnc(C(=O)NCc2ccco2)c1N | inactive |
| NS(=O)(=O)c1ccc(CNC(=O)c2cc(-c3cccnc3)nc3ccc(Br)cc23)cc1 | inconclusive: 18.4 µM [falling, partial curve, poor fit] |
| CC(C)=C1SC(N2CCN(c3ccc(Cl)cc3)CC2)=NC1=O | inconclusive: 18.4 µM [falling, partial curve, poor fit] |
| COc1cc(C)cc2c1OC(c1ccccc1)CC2=O (stereo unspecified) | inconclusive: 29.1 µM [activator, single point] |
| CCOc1ccc2oc(C(=O)NC3CCN(Cc4ccccc4)CC3)c(C)c2c1 | inconclusive: 7.31 µM [falling, single point] |
| O=C(NCc1ccco1)c1cc2n(n1)C(C(F)(F)F)CC(c1ccc(Br)cc1)N2 (stereo unspecified) | inconclusive: 13 µM [falling, partial curve, poor fit] |
| O=C(COCc1cc(-c2ccc3c(c2)OCO3)on1)Nc1cccc(O)c1 | inactive |
| COc1ccc(-n2cnc3cc(N)ccc32)cc1 | inconclusive: 1.3 µM [activator, full curve] |
| CCN(CC)C(=O)CN1C(=O)C2(OCC(C)(c3ccccc3)CO2)c2ccccc21 (stereo unspecified) | inconclusive: 29.1 µM [falling, partial curve, poor fit] |
| CC(Cc1ccccc1)NC(=O)c1ccc([N+](=O)[O-])cc1 (stereo unspecified) | inconclusive: 0.731 µM [activator, full curve, poor fit] |
| COc1ccc2c(c1)c(CC(=O)Nc1cccc(S(N)(=O)=O)c1)c(C)n2C(=O)c1ccc(Cl)cc1 | inconclusive: 29.1 µM [falling, single point] |
| CN(C)/C=C(\C#N)C(=O)N/N=C/c1ccccc1 | inconclusive: 9.2 µM [activator, partial curve] |
| Oc1c(Br)cc(C2N=C(c3ccccc3)NO2)cc1Br (stereo unspecified) | inactive |
| COc1ccc(C(=O)NC(=S)NCCc2ccccc2)cc1 | inconclusive: 18.4 µM [activator, single point] |
| O=c1[nH]nc(Cc2ccc(-c3cccc(Cl)c3)o2)c2ccccc12 | active: 20.6 µM |
